Results are given in words; binding and its absence hold for the method and conditions named. For some of these results: Binding seen in cells or lysates may run through a third protein. Some binding calls cover weakened binding; strength is not graded here.
Molecular target: cyclin-dependent kinase-like 3 (CDKL3), endogenous (human (endogenous; cell line of this blot not stated, all lines used are human)) (UniProt Q8IVW4)
Assay: co-IP; endogenous CDKL3 with endogenous cyclins, Rb and CDK4 (Figure 3B); cell line not shown

The chains behind the UniProt entries cited, without tags or fusion partners.
UniProt Q8IVW4: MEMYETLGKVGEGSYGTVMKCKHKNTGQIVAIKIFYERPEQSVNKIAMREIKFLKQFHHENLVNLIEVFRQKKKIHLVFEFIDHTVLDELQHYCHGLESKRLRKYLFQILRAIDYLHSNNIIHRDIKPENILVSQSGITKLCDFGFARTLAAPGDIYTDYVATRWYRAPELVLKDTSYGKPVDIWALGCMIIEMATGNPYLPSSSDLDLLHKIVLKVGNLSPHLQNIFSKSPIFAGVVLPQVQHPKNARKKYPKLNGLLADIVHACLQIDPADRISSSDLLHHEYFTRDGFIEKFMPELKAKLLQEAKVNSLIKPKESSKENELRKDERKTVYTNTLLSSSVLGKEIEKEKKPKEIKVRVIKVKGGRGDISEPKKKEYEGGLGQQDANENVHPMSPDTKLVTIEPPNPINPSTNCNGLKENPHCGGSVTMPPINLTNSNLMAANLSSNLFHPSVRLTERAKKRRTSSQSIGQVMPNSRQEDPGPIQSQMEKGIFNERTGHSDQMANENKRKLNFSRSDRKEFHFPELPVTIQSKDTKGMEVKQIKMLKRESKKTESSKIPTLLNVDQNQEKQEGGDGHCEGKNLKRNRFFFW
UniProt P20248: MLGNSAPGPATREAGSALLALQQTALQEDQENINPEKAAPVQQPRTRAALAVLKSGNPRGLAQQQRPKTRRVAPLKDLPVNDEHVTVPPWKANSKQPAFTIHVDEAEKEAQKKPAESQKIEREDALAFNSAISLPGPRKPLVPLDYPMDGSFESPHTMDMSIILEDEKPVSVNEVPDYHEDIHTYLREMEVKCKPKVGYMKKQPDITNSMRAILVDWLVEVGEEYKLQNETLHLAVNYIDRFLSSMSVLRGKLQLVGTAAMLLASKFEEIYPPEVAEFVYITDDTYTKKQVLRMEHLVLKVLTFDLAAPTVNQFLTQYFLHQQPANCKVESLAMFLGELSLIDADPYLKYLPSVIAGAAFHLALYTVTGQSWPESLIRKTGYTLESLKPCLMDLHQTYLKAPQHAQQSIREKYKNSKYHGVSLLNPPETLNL
UniProt P14635: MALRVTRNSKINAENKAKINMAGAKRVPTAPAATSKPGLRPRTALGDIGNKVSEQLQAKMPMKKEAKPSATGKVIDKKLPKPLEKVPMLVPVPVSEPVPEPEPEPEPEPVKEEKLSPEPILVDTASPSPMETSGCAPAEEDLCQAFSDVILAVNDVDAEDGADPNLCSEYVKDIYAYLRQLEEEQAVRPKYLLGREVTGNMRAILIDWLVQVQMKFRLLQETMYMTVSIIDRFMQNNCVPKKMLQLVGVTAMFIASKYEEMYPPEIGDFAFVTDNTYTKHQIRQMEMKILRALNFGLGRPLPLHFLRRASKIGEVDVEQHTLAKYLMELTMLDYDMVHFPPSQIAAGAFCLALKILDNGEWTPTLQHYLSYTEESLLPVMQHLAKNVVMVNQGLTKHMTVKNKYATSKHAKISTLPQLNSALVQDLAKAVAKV
UniProt P24385: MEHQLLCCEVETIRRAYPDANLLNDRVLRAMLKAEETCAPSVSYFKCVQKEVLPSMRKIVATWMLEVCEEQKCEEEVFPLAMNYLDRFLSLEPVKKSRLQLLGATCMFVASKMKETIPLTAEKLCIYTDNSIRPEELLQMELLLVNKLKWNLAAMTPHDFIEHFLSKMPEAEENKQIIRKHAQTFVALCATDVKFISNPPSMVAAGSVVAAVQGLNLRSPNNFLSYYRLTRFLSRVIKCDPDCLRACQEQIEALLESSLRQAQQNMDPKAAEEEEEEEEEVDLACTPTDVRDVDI
UniProt P24864: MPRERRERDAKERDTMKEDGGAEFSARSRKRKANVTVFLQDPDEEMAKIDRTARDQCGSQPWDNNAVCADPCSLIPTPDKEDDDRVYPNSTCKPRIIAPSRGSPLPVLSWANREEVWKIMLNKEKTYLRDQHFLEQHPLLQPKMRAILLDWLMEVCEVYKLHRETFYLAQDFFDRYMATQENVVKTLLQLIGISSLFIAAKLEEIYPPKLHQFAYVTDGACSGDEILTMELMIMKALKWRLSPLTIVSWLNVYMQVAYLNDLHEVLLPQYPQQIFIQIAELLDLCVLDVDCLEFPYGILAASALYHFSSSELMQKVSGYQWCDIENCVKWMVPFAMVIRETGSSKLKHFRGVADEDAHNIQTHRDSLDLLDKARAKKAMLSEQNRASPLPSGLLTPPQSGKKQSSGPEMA

Row | Molecule | binding
1 | cyclin A2, endogenous (from UniProt P20248 1-432) | binds
2 | cyclin B1, endogenous (from UniProt P14635 1-433) | binds
3 | cyclin D1, endogenous (from UniProt P24385 1-295) | binds
4 | cyclin E1, endogenous (from UniProt P24864 1-410) | binds
5 | retinoblastoma (Rb) protein, endogenous (protein, UniProt P06400 1-928) MPPKTPRKTAATAAAAAAEPPAPPPPPPPEEDPEQDSGPEDLPLVRLEFEETEEPDFTALCQKLKIPDHVRERAWLTWEKVSSVDGVLGGYIQKKKELWGICIFIAAVDLDEMSFTFTELQKNIEISVHKFFNLLKEIDTSTKVDNAMSRLLKKYDVLFALFSKLERTCELIYLTQPSSSISTEINSALVLKVSWITFLLAKGEVLQMEDDLVISFQLMLCVLDYFIKLSPPMLLKEPYKTAVIPINGSPRTPRRGQNRSARIAKQLENDTRIIEVLCKEHECNIDEVKNVYFKNFIPFMNSLGLVTSNGLPEVENLSKRYEEIYLKNKDLDARLFLDHDKTLQTDSIDSFETQRTPRKSNLDEEVNVIPPHTPVRTVMNTIQQLMMILNSASDQPSENLISYFNNCTVNPKESILKRVKDIGYIFKEKFAKAVGQGCVEIGSQRYKLGVRLYYRVMESMLKSEEERLSIQNFSKLLNDNIFHMSLLACALEVVMATYSRSTSQNLDSGTDLSFPWILNVLNLKAFDFYKVIESFIKAEGNLTREMIKHLERCEHRIMESLAWLSDSPLFDLIKQSKDREGPTDHLESACPLNLPLQNNHTAADMYLSPVRSPKKKGSTTRVNSTANAETQATSAFQTQKPLKSTSLSLFYKKVYRLAYLRLNTLCERLLSEHPELEHIIWTLFQHTLQNEYELMRDRHLDQIMMCSMYGICKVKNIDLKFKIIVTAYKDLPHAVQETFKRVLIKEEEYDSIIVFYNSVFMQRLKTNILQYASTRPPTLSPIPHIPRSPYKFPSSPLRIPGGNIYISPLKSPYKISEGLPTPTKMTPRSRILVSIGESFGTSEKFQKINQMVCNSDRVLKRSAEGSNPPKPLKKLRFDIEGSDEADGSKHLPGESKFQQKLAEMTSTRTRMQKQKMNDSMDTSNKEEK | binds

Molecular target: CDKL3 (in vitro competition assay) (UniProt Q8IVW4)
Assay: in vitro competition assay; CDKL3 and CDK2 competing for cyclin A2 (Supplemental Figure 2, L and M)

Row | Molecule | binding
6 | cyclin A2 (in vitro competition assay) (from UniProt P20248 1-432) | binds

Molecular target: cyclin-dependent kinase-like 3 (CDKL3), exogenous, wild type (UniProt Q8IVW4)
Assay: co-IP; exogenous CDKL3 with cyclins A2, B1, D1 and E1 (Figure 3A); bait, tags and cell line not shown

Row | Molecule | binding
7 | cyclin A2 (co-IP with exogenous CDKL3) (from UniProt P20248 1-432) | binds
8 | cyclin B1 (co-IP with exogenous CDKL3) (from UniProt P14635 1-433) | binds
9 | cyclin D1 (co-IP with exogenous CDKL3) (from UniProt P24385 1-295) | binds
10 | cyclin E1 (co-IP with exogenous CDKL3) (from UniProt P24864 1-410) | binds
